Reference: PubChem BioAssay AID1259254 (NCATS, 2017)
The deposit covers about 59,000 reagents; shown is an unselected part. Of all reagents, about 1,550 (2.6%) were called active. 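G2 share is only a proxy for re-replication; each gene was hit by three separate siRNAs, and active genes were retested.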 Raw values vary from plate to plate and are shown uncorrected. Entries without a mark were called inactive. Reagents against one gene are numbered here. Not given: the amount of reagent.

- Screen: 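Finding genes that stop cells copying their DNA twice in one cycle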 (primary screen)
- Cells: human HCT116 colorectal cancer cells
- Reagent: single siRNA against human genes
- Time to read-out: 3 days
- Measurement: 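Imaged Hoechst DNA stain sorts each cell into a cycle phase by DNA amount; per plate, G2 fraction set to 0% for non-targeting and 100% for GMNN siRNA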
- Direction: G2 robust z-score and G2 cells, % of GMNN control: higher = more G2 cells, more excess DNA replication; raw share of cells in G2: higher = larger share of cells with G2 DNA content
- Active means: 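An siRNA counts as active if its G2 robust z-score lies at least 5 MADs above the screen median; here such calls match roughly 38% of GMNN control or more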

| Target gene | reagent no. | G2 robust z-score | G2 cells, % of GMNN control | raw share of cells in G2 (%) |
| --- | --- | --- | --- | --- |
| CCNT1 (cyclin T1) | 1 | 1.04 | 10.3 | 8.62 |
| CCNT1 (cyclin T1) | 2 | 0.632 | 7.41 | 6.65 |
| CCNT1 (cyclin T1) | 3 | 0.108 | 3.73 | 6.36 |
| WDR19 (WD repeat domain 19) | 1 | -0.914 | -3.47 | 2.98 |
| WDR19 (WD repeat domain 19) | 2 | 0.562 | 6.92 | 7.77 |
| WDR19 (WD repeat domain 19) | 3 | 1.16 | 11.1 | 6.56 |
| HSFY1P1 (HSFY1 pseudogene 1) | 1 | -0.993 | -4.02 | 2.32 |
| HSFY1P1 (HSFY1 pseudogene 1) | 2 | 1.07 | 10.5 | 8.51 |
| HSFY1P1 (HSFY1 pseudogene 1) | 3 | 2.88 | 23.2 | 10.6 |
| BMP8A (bone morphogenetic protein 8a) | 1 | -0.589 | -1.18 | 3.58 |
| BMP8A (bone morphogenetic protein 8a) | 2 | -0.664 | -1.7 | 2.51 |
| BMP8A (bone morphogenetic protein 8a) | 3 | -0.843 | -2.96 | 3 |
| GANC (glucosidase alpha, neutral C) | 1 | 1.21 | 11.5 | 9.41 |
| GANC (glucosidase alpha, neutral C) | 2 | 0.813 | 8.69 | 6.75 |
| GANC (glucosidase alpha, neutral C) | 3 | -0.474 | -0.371 | 5.12 |
| NPFFR2 (neuropeptide FF receptor 2) | 1 | -0.261 | 1.13 | 6.25 |
| NPFFR2 (neuropeptide FF receptor 2) | 2 | -0.252 | 1.19 | 4.93 |
| NPFFR2 (neuropeptide FF receptor 2) | 3 | 0.0601 | 3.39 | 4.31 |
| ROCK2 (Rho associated coiled-coil containing protein kinase 2) | 1 | -0.531 | -0.771 | 5.35 |
| ROCK2 (Rho associated coiled-coil containing protein kinase 2) | 2 | -1 | -4.08 | 2.37 |
| ROCK2 (Rho associated coiled-coil containing protein kinase 2) | 3 | -1.44 | -7.17 | 2.58 |
| GLIPR2 (GLI pathogenesis related 2) | 1 | 2.87 | 23.2 | 11.6 |
| GLIPR2 (GLI pathogenesis related 2) | 2 | -0.568 | -1.03 | 2.6 |
| GLIPR2 (GLI pathogenesis related 2) | 3 | -0.791 | -2.6 | 2.16 |
| RPS28P7 (ribosomal protein S28 pseudogene 7) | 1 | 6.68 (active) | 50 | 18.9 |
| RPS28P7 (ribosomal protein S28 pseudogene 7) | 2 | 2.46 | 20.3 | 11.4 |
| RPS28P7 (ribosomal protein S28 pseudogene 7) | 3 | 1.86 | 16 | 9.17 |

Next part, starting with the last 3 of the part before.
| Target gene | reagent no. | G2 robust z-score | G2 cells, % of GMNN control | raw share of cells in G2 (%) |
| --- | --- | --- | --- | --- |
| RPS28P7 (ribosomal protein S28 pseudogene 7) | 1 | 6.68 (active) | 50 | 18.9 |
| RPS28P7 (ribosomal protein S28 pseudogene 7) | 2 | 2.46 | 20.3 | 11.4 |
| RPS28P7 (ribosomal protein S28 pseudogene 7) | 3 | 1.86 | 16 | 9.17 |
| TAF15 (TATA-box binding protein associated factor 15) | 1 | -0.197 | 1.58 | 6.27 |
| TAF15 (TATA-box binding protein associated factor 15) | 2 | -0.477 | -0.389 | 4.35 |
| TAF15 (TATA-box binding protein associated factor 15) | 3 | -0.607 | -1.3 | 3.78 |
| SREK1IP1 (SREK1 interacting protein 1) | 1 | -1.23 | -5.68 | 1.57 |
| SREK1IP1 (SREK1 interacting protein 1) | 2 | -1.15 | -5.14 | 1.06 |
| SREK1IP1 (SREK1 interacting protein 1) | 3 | 0.0588 | 3.38 | 4.29 |
| XRCC4 (X-ray repair cross complementing 4) | 1 | -0.934 | -3.61 | 3.53 |
| XRCC4 (X-ray repair cross complementing 4) | 2 | -0.0305 | 2.75 | 4.99 |
| XRCC4 (X-ray repair cross complementing 4) | 3 | -0.984 | -3.96 | 1.95 |
| HARBI1 (harbinger transposase derived 1) | 1 | -1.34 | -6.44 | 1.31 |
| HARBI1 (harbinger transposase derived 1) | 2 | -0.254 | 1.18 | 4.07 |
| HARBI1 (harbinger transposase derived 1) | 3 | 0.515 | 6.59 | 5.59 |
| CIMIP4 (ciliary microtubule inner protein 4) | 1 | 1.52 | 13.7 | 8.68 |
| CIMIP4 (ciliary microtubule inner protein 4) | 2 | 0.193 | 4.32 | 5.15 |
| CIMIP4 (ciliary microtubule inner protein 4) | 3 | -0.0131 | 2.88 | 5.35 |
| OTUB2 (OTU deubiquitinase, ubiquitin aldehyde binding 2) | 1 | -0.352 | 0.49 | 5.85 |
| OTUB2 (OTU deubiquitinase, ubiquitin aldehyde binding 2) | 2 | 0.345 | 5.4 | 6.26 |
| OTUB2 (OTU deubiquitinase, ubiquitin aldehyde binding 2) | 3 | -0.222 | 1.4 | 4.73 |
| FIRRM (FIGNL1 interacting regulator of recombination and mitosis) | 1 | 0.207 | 4.42 | 6.22 |
| FIRRM (FIGNL1 interacting regulator of recombination and mitosis) | 2 | 2.94 | 23.7 | 13.9 |
| FIRRM (FIGNL1 interacting regulator of recombination and mitosis) | 3 | 0.478 | 6.33 | 5.16 |
